# The list shows a part of the results. Shown are side measurements of this screen, not its main read-out; they come without a call. The list favours compounds with an active or inconclusive main result. Words in brackets tell the shape of the fitted curve; partial curves, single points and poor fits give uncertain potencies.
# Assay: IkB Signaling
# Conditions: ABC-DLBCL IkBa-CBG/CBR dual luciferase ratio (green luciferase fused to IkBa over red control in OCI-Ly3 lymphoma cells), 4 h
# Method in brief: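 Luminescence ratio of IκBα-fused green versus native red beetle luciferase in OCI-Ly3 cells, 4 h post-doxycycline with compound; red signal alone, scaled from basal (0%) to zero light (-100%), flagged nonspecific or cytotoxic effects.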
# [1] = measured here: control luc red channel unless noted
smiles,measurement,setting,value
Cc1cccc(NC(=O)CSc2nc3ccc(NC(=O)COc4ccccc4C)cc3s2)c1,AC50,[1],"2.51 µM [falling, full curve]"
COc1ccc(NC(=O)c2oc3ccc(S(=O)(=O)N4CCC5(CC4)OCCO5)cc3c2C)cc1,AC50,[1],"3.98 µM [falling, full curve]"
CCn1c2c(c(=O)n3ncc(C(=O)Nc4cc(Cl)ccc4OC)c13)CN(Cc1ccc(OC)cc1)CC2,AC50,[1],"7.94 µM [falling, partial curve, poor fit]"
Cc1c(C(=O)OCCOc2ccccc2)[nH]c2c1C(=O)CC(c1ccc(C(C)(C)C)cc1)C2 (stereo unspecified),AC50,[1],"20 µM [falling, single point]"
CCOC(=O)C1CCN(C(=O)CCc2nc3ccccc3[nH]2)CC1,AC50,[1],"31.6 µM [falling, single point]"
O=C(c1cc(-c2ccco2)nn1-c1cccc(Cl)c1)N1CCCCC1,AC50,[1],"39.8 µM [rising, single point] [measured here: IkB-luc green channel]"
CC1CN(C(=O)NCc2ccccc2)c2cc(Cl)ccc2O1 (stereo unspecified),AC50,[1],"10 µM [falling, partial curve]"
COc1ccc(S(=O)(=O)N2CCN(C(=O)c3c(C)nn(-c4ccccc4)c3Cl)CC2)cc1,AC50,[1],"12.6 µM [falling, partial curve]"
COc1cc(NC(=O)N2CCc3c(sc4c3CCCC4)C2c2ccccc2)cc(OC)c1OC (stereo unspecified),AC50,[1],"6.31 µM [falling, partial curve]"
CCOc1ccc(CNC(=O)CSc2nnc(C)c3c(C)n(-c4ccc(Cl)cc4)nc23)cc1,AC50,[1],"7.94 µM [falling, partial curve]"
COc1ccc(OC)c2sc(N3CCN(C(=O)c4ccco4)CC3)nc12,AC50,[1],"20 µM [rising, partial curve, poor fit]"
COc1ccc(-c2cc(C(F)(F)F)nc(SCCC(=O)Nc3ccc(OC)c(OC)c3)n2)cc1,AC50,[1],"39.8 µM [falling, single point]"
CCN(CC)C(=O)c1c(NC(=O)c2cccc(C)c2)sc2c1CCC(C)C2 (stereo unspecified),AC50,[1],"0.1 µM [falling, full curve]"
Cc1ccc(NC(=O)c2sc3nc(-c4cccs4)ccc3c2N)cc1F,AC50,[1],"20 µM [falling, single point]"
OC(CN1CCN(c2ccccn2)CC1)Cn1c2ccccc2c2ccccc21 (stereo unspecified),AC50,measured here: IkB-luc green channel,"39.8 µM [falling, single point]"
same,AC50,measured here: control luc red channel,"31.6 µM [falling, single point]"
Cc1ccc(-n2ncc3c(NC4CCCCCC4)ncnc32)cc1,AC50,[1],"10 µM [falling, partial curve]"
Cc1cc(C)c(-c2n[nH]c3c2C(c2ccccc2F)N(Cc2ccco2)C3=O)c(O)c1 (stereo unspecified),AC50,[1],"25.1 µM [falling, partial curve]"
O=c1[nH]c2cc(Br)ccc2n2cccc12,AC50,[1],"0.1 µM [rising, full curve]"
COc1ccc(Nc2ncnc3sc4c(c23)CCCC4)cc1,AC50,[1],"39.8 µM [falling, single point]"
C=C(C)COc1ccc(-c2[nH]ncc2Oc2cccc(OC)c2)c(O)c1,AC50,[1],"25.1 µM [falling, single point]"
CCN(CC)S(=O)(=O)c1ccc2c(c1)N(CC(=O)N1CCN(c3cccc(C)c3C)CC1)C(=O)CO2,AC50,[1],"39.8 µM [falling, single point]"
Clc1ccc(-n2ncc3c(NC4CCCC4)ncnc32)cc1,AC50,[1],"7.94 µM [falling, partial curve]"
CCOc1cc(CNS(=O)(=O)c2ccc3c(c2)C(C)(C)C(=O)N3)cc(OCC)c1OCC,AC50,[1],"0.158 µM [rising, full curve]"
CC(NC(=O)Cn1ccc2cc(S(=O)(=O)N3CCCCCC3)ccc21)c1ccccc1 (stereo unspecified),AC50,[1],"25.1 µM [falling, partial curve]"
O=C(NCc1ccco1)c1cc(-c2cccc(Cl)c2)on1,AC50,[1],"10 µM [falling, partial curve]"
COc1ccc(C)cc1NC(=O)Nc1nnc(N2CCCCC2)s1,AC50,[1],"15.8 µM [falling, partial curve]"
Cc1ccc(C(=O)Nc2ccc3c(c2)nc2n3CCSC2)cc1,AC50,[1],"20 µM [falling, partial curve]"
Cc1nn2c(=O)cc(COC(=O)c3cccc(NC(=O)COc4ccccc4C)c3)nc2s1,AC50,[1],"15.8 µM [falling, partial curve]"
Cc1ccc(N2C(=O)CCSC23C(=O)N(Cc2ccccc2)c2ccccc23)cc1 (stereo unspecified),AC50,[1],"39.8 µM [falling, single point]"
CCN(CC)C(=O)c1ccc2c(c1)N(Cc1ccc(C(F)(F)F)cc1)C(=O)c1ccccc1S2,AC50,[1],"12.6 µM [falling, partial curve]"
Cc1ccc(NC(=O)Nc2nnc(N3CCCC3)s2)cc1C,AC50,[1],"12.6 µM [falling, partial curve]"
Cn1c(=O)c(C(=O)O)nn(-c2ccccc2)c1=O,AC50,[1],"0.00631 µM [falling, full curve, poor fit]"
CCOC(=O)c1[nH]c(C)c(C(=O)N2CCN(c3ccc(F)cc3)CC2)c1C,AC50,[1],"15.8 µM [falling, partial curve]"
CCOc1ccccc1CNC(=O)C1CCCN(c2nnc(C)c3c(C)n(-c4ccccc4)nc23)C1 (stereo unspecified),AC50,[1],"15.8 µM [falling, partial curve]"
COc1ccc(C(=O)N2CCN(c3nc4cc(C)ccc4cc3C#N)CC2)c(OC)c1,AC50,[1],"25.1 µM [falling, single point]"
CCCN1C(=O)C(O)(CC(=O)c2ccc(OC)c(OC)c2)c2ccccc21 (stereo unspecified),AC50,[1],"25.1 µM [falling, single point]"
CCc1ccccc1N(C)C(=O)CCc1nc(-c2ccc(C)cc2)no1,AC50,[1],"15.8 µM [falling, partial curve]"
O=C(Nc1ccc2nc(SCCOc3ccccc3)sc2c1)c1cccs1,AC50,[1],"0.126 µM [falling, partial curve, poor fit]"
O=C(Nc1ccc(C(F)(F)F)cc1)c1cc(S(=O)(=O)NC2CCCCC2)ccc1F,AC50,[1],"25.1 µM [falling, partial curve]"
CCCCn1c(SCC(=O)NCc2ccco2)nc2ccc(N3CCOCC3)cc2c1=O,AC50,[1],"15.8 µM [falling, partial curve]"

# 12 entries from above in another layout.
smiles	measurement	setting	value
O=C(c1cc(-c2ccco2)nn1-c1cccc(Cl)c1)N1CCCCC1	AC50	[1]	39.8 µM [rising, single point] [measured here: IkB-luc green channel]
COc1cc(NC(=O)N2CCc3c(sc4c3CCCC4)C2c2ccccc2)cc(OC)c1OC (stereo unspecified)	AC50	[1]	6.31 µM [falling, partial curve]
COc1ccc(-c2cc(C(F)(F)F)nc(SCCC(=O)Nc3ccc(OC)c(OC)c3)n2)cc1	AC50	[1]	39.8 µM [falling, single point]
Cc1cc(C)c(-c2n[nH]c3c2C(c2ccccc2F)N(Cc2ccco2)C3=O)c(O)c1 (stereo unspecified)	AC50	[1]	25.1 µM [falling, partial curve]
C=C(C)COc1ccc(-c2[nH]ncc2Oc2cccc(OC)c2)c(O)c1	AC50	[1]	25.1 µM [falling, single point]
CCN(CC)S(=O)(=O)c1ccc2c(c1)N(CC(=O)N1CCN(c3cccc(C)c3C)CC1)C(=O)CO2	AC50	[1]	39.8 µM [falling, single point]
COc1ccc(C)cc1NC(=O)Nc1nnc(N2CCCCC2)s1	AC50	[1]	15.8 µM [falling, partial curve]
Cc1nn2c(=O)cc(COC(=O)c3cccc(NC(=O)COc4ccccc4C)c3)nc2s1	AC50	[1]	15.8 µM [falling, partial curve]
CCOc1ccccc1CNC(=O)C1CCCN(c2nnc(C)c3c(C)n(-c4ccccc4)nc23)C1 (stereo unspecified)	AC50	[1]	15.8 µM [falling, partial curve]
CCCN1C(=O)C(O)(CC(=O)c2ccc(OC)c(OC)c2)c2ccccc21 (stereo unspecified)	AC50	[1]	25.1 µM [falling, single point]
CCc1ccccc1N(C)C(=O)CCc1nc(-c2ccc(C)cc2)no1	AC50	[1]	15.8 µM [falling, partial curve]
O=C(Nc1ccc(C(F)(F)F)cc1)c1cc(S(=O)(=O)NC2CCCCC2)ccc1F	AC50	[1]	25.1 µM [falling, partial curve]
